Test results from PubChem BioAssay AID485298 (National Center for Advancing Translational Sciences (NCATS), 2010).
The campaign covered roughly 320,000 compounds. About 740 (0.23%) were called active. The inconclusive results got no clear call from the source; some entries with a clear call stand among them for comparison. Calls come from the whole dose curve; as a rule, active = well fitted activation curve with a large enough effect; inconclusive = small, poorly fitted or top-dose-only effect; inactive = no such curve, though single readings can be large or run the other way. Where the call is inconclusive, the potency comes from a doubtful curve fit.

experiment: qHTS Assay for Small Molecule Inhibitors of Mitochondrial Division or Activators of Mitochondrial Fusion; note: nearly all actives have a fitted effect of over 45% in size; details: S. cerevisiae fusion-defective mutant growth rescue, CellTiterGlo 48 h; series mostly up to 46.1 µM
Procedure, shortened: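 Growth-rescue viability read-out: after 48 h at the non-permissive 37C in glycerol/ethanol YPEG, yeast mitochondrial fusion mutants are measured by CellTiterGlo luminescence; compounds (23 nl pinned per well) restoring growth score as division inhibitors or fusion activators.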
Potency is the fitted concentration of half-maximal effect.

| SMILES | Potency |
| --- | --- |
| COc1cccc(N2CCN(c3ncnc4c3[nH]c3ccccc34)CC2C)c1 (configuration not stated) | inconclusive: 31.6 µM [activator, single point] |
| Cc1ccc2nc(-c3ccccc3)cc(C(=O)N3CCN(S(=O)(=O)c4c(C)noc4C)CC3)c2c1 | inconclusive: 35.5 µM [activator, partial curve] |
| Cc1cc(NCCOCCO)n2ncc(-c3ccc(Cl)cc3)c2n1 | inactive |
| Cc1cc(C(=O)N/N=C/c2c(CO)cnc(C)c2O)c2ccccc2n1 | inactive |
| Cc1ccc(CCNC(=O)c2c[nH]c3ccc(S(=O)(=O)Nc4ccc(C)cc4C)cc3c2=O)cc1 | inactive |
| Cc1ccc(OCC(=O)NCCc2nc3ccccc3[nH]2)c(C)c1 | inactive |
| CCn1c(SCC(=O)N2c3ccccc3Sc3ccccc32)nnc1-c1ccco1 | inactive |
| CCc1ccc2nc3n[nH]c(N)c3cc2c1 | inactive |
| CCc1ccc(NC(=O)C(NS(=O)(=O)c2cccc3nsnc23)c2ccccc2)cc1 (configuration not stated) | inconclusive: 31.6 µM [activator, single point] |
| O=C(/C=C/c1cn(-c2ccccc2)nc1-c1cccnc1)c1ccco1 | inactive |
| Cn1nnnc1SCc1ccc(C(=O)Nc2ccc(Br)cc2)cc1 | inactive |
| Cn1c(=O)c2[nH]cnc2n(C)c1=O | inconclusive: 7.08 µM [activator, partial curve] |
| Nc1nc(SCc2nc3scc(-c4ccccc4)c3c(=O)[nH]2)n[nH]1 | inconclusive: 31.6 µM [activator, single point] |
| CCOc1ccccc1NC(=O)Cn1c(=O)oc2cc(Cl)ccc21 | inactive |
| COc1cc(/C=C/c2nc(-c3ccccc3O)n[nH]2)cc(OC)c1OC | inconclusive: 15.8 µM [activator, single point] |
| CCCCn1c(SCC(=O)O)nc2ccccc21 | inconclusive: 8.91 µM [activator, partial curve] |
| CC1CC(C)CN(C(=O)C(Cc2ccccc2)NC(=O)c2ccccc2)C1 (configuration not stated) | inconclusive: 14.1 µM [activator, partial curve] |
| Cc1ccc(-c2csc(NC(=O)CCNC(=O)c3ccccc3Cl)n2)cc1 | inconclusive: 20 µM [activator, single point] |
| O=c1c2ccccc2c(-c2ccccc2)nn1Cc1c(Cl)cccc1Cl | inconclusive: 14.1 µM [activator, single point] |
| Cc1ccccc1NC(=O)Nc1ccccc1N1CCCCC1 | inconclusive: 17.8 µM [activator, partial curve, poor fit] |
| C/C(=N\NC(=O)c1cccc(C)c1)c1ccc(N2CCOCC2)cc1 | inactive |
| O=C(O)CSc1c(-c2ccccc2)[nH]c2ccccc12 | inconclusive: 12.6 µM [activator, partial curve] |
| O=C(/C=C/c1ccc(Cl)cc1)N1CCN(c2ccc([N+](=O)[O-])c(N3CCOCC3)c2)CC1 | inconclusive: 12.6 µM [activator, partial curve] |
| COC(=O)c1sccc1NC(=S)NCc1ccc(Cl)cc1 | inconclusive: 35.5 µM [activator, single point] |

Nothing new here: entries from further up.

| SMILES | Potency |
| --- | --- |
| Cc1ccc(-c2csc(NC(=O)CCNC(=O)c3ccccc3Cl)n2)cc1 | inconclusive: 20 µM [activator, single point] |
| O=c1c2ccccc2c(-c2ccccc2)nn1Cc1c(Cl)cccc1Cl | inconclusive: 14.1 µM [activator, single point] |

The results go on:

| SMILES | Potency |
| --- | --- |
| O=C(c1ccc(Cl)c(Cl)c1)N1CCC(=O)N(C(COCc2ccccc2)Cc2ccccc2)CC1 (configuration not stated) | inconclusive: 22.4 µM [activator, single point] |
| CC1(C)COC(/C=C/c2ccc([N+](=O)[O-])cc2)=N1 | inactive |
| Cc1ccc(N(CC(=O)NC(C)(C)C)C(=O)CS(=O)CC(=O)Nc2ccc3c(c2)OCO3)cc1 (configuration not stated) | inconclusive: 4.47 µM [activator, full curve, poor fit] |
| COc1ccc(NC(=O)C(=O)NCCC2CCCCN2S(=O)(=O)c2ccc(F)cc2)cc1 (configuration not stated) | inconclusive: 35.5 µM [activator, partial curve] |
| COc1ccc(C(C)=O)cc1Cn1cnc2c(cnn2C)c1=O | inactive |
| Cc1sc2ncnc(Sc3ccccc3C(=O)Nc3ccc(C#N)cc3)c2c1C | active: 12.6 µM |
| COc1cnn(-c2ccc(C)cc2)c(=O)c1Br | inactive |
| CN1C(C(=O)Nc2ccccn2)=C(O)c2sccc2S1(=O)=O | inconclusive: 35.5 µM [activator, partial curve] |
| Cn1nnnc1Sc1ncnc2scc(-c3ccccc3Cl)c12 | inactive |
| CCCN1CCN(C(=O)c2ccccc2-c2nc3ccccc3s2)CC1 | inconclusive: 5.62 µM [activator, single point] |
| CCOC(=O)c1cc(-c2ccccc2)sc1NC(=O)C(C)Sc1nnc(C)s1 (configuration not stated) | inconclusive: 17.8 µM [activator, single point] |
| O=S(=O)(c1ccccc1F)N1CCC(Oc2ccc(-n3cnnn3)cc2)CC1 | active: 10 µM |
| CC(=O)OC(C(=O)Nc1nccs1)c1ccccc1 (configuration not stated) | inactive |
| CCCn1nnc(NC(=O)c2ccc(-c3cc(Cl)ccc3Cl)o2)n1 | inactive |
| CC(=O)NNC(=S)NC(=O)c1cccc([N+](=O)[O-])c1 | inconclusive: 15.8 µM [activator, partial curve] |
| CC(=O)C1=C(C)NC(SCC(=O)c2ccc(Cl)c(Cl)c2)=C(C#N)C1c1ccco1 (configuration not stated) | inconclusive: 8.91 µM [activator, partial curve] |
| Cc1c(Cl)cccc1NC(=S)N1CCCN(Cc2ccccc2F)C1 | inconclusive: 31.6 µM [activator, single point] |
| CC1Nc2ncnc(N3CCN(c4ccccc4)CC3)c2N(Cc2ccc(Cl)cc2)C1=O (configuration not stated) | inconclusive: 25.1 µM [activator, single point] |
| O=C(Nc1ccc(Cl)c(Cl)c1)c1ccccc1 | inconclusive: 17.8 µM [activator, single point] |
| Clc1ccc(Nc2nc(-c3cccs3)cs2)nc1 | inconclusive: 22.4 µM [activator, single point] |
| O=C(NCc1ccc2c(c1)OCO2)Nc1ccc(F)cc1 | inactive |
| CCN1CCN(S(=O)(=O)c2ccc(Cl)c(C(=O)NCc3ccco3)c2)CC1 | inactive |
| CCOC(=O)N1CCN(S(=O)(=O)c2ccc(OCC)c3ccccc23)CC1 | inconclusive: 22.4 µM [activator, single point] |

Entries listed so far containing a cyano group (2):

| SMILES | Potency |
| --- | --- |
| Cc1sc2ncnc(Sc3ccccc3C(=O)Nc3ccc(C#N)cc3)c2c1C | active: 12.6 µM |
| CC(=O)C1=C(C)NC(SCC(=O)c2ccc(Cl)c(Cl)c2)=C(C#N)C1c1ccco1 (configuration not stated) | inconclusive: 8.91 µM [activator, partial curve] |
